Single values are uncertain, as repeats are few or missing.
Compound: [O-][N+](C(C1=C(C(O)=C2)NC(C(C=C3)=CC=C3Cl)C4C1C=CC4)=C2Cl)=O
Test: melting temperature shift (compound 7 minus DMSO); higher = compound stabilises the protein
Settings: 10 µM
Procedure: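 Thermal proteome profiling (TMT mass spectrometry) in intact DAOY medulloblastoma cells or DAOY lysates treated with 10 µM compound 7 or DMSO, heated at 10 temperatures from 40.5 to 73.8 °C for 3 min. Melting curves were fitted with the Bioconductor TPP package, and the melting point difference between compound and vehicle is reported per protein (single curve per condition).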

Sequences of proteins named here, by UniProt entry; tags and fusion partners are left off. A change or cut given only in a name is not applied to a line headed by its entry.
UniProt Q14247: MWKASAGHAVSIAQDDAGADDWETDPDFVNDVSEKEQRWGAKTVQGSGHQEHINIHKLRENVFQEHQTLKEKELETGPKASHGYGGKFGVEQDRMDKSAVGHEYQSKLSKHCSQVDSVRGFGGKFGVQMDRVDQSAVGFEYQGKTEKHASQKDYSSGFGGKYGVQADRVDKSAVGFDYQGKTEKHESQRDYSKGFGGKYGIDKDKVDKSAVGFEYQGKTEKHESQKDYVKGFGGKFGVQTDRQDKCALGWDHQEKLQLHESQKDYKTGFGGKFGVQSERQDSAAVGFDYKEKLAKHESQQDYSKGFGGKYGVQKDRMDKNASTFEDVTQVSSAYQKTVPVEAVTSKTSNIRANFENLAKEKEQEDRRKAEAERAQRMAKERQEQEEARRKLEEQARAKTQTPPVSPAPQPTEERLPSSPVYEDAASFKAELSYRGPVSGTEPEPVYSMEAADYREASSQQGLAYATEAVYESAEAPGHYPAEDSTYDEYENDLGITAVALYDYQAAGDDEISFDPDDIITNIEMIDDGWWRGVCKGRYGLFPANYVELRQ
UniProt P57105: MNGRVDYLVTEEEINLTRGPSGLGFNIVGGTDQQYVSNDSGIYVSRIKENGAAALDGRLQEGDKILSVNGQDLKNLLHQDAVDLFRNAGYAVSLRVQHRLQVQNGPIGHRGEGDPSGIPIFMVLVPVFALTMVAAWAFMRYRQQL
UniProt Q9BYV8: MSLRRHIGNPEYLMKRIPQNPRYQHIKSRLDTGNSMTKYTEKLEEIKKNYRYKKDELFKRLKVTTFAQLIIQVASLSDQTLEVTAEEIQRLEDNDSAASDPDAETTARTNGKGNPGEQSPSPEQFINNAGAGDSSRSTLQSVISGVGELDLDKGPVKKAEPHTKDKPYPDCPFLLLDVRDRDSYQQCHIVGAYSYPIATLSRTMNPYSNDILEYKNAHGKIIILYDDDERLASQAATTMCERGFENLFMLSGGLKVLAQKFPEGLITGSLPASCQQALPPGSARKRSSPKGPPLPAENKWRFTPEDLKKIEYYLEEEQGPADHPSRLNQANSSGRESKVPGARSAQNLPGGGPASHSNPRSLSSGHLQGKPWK
UniProt P46940, whole entry: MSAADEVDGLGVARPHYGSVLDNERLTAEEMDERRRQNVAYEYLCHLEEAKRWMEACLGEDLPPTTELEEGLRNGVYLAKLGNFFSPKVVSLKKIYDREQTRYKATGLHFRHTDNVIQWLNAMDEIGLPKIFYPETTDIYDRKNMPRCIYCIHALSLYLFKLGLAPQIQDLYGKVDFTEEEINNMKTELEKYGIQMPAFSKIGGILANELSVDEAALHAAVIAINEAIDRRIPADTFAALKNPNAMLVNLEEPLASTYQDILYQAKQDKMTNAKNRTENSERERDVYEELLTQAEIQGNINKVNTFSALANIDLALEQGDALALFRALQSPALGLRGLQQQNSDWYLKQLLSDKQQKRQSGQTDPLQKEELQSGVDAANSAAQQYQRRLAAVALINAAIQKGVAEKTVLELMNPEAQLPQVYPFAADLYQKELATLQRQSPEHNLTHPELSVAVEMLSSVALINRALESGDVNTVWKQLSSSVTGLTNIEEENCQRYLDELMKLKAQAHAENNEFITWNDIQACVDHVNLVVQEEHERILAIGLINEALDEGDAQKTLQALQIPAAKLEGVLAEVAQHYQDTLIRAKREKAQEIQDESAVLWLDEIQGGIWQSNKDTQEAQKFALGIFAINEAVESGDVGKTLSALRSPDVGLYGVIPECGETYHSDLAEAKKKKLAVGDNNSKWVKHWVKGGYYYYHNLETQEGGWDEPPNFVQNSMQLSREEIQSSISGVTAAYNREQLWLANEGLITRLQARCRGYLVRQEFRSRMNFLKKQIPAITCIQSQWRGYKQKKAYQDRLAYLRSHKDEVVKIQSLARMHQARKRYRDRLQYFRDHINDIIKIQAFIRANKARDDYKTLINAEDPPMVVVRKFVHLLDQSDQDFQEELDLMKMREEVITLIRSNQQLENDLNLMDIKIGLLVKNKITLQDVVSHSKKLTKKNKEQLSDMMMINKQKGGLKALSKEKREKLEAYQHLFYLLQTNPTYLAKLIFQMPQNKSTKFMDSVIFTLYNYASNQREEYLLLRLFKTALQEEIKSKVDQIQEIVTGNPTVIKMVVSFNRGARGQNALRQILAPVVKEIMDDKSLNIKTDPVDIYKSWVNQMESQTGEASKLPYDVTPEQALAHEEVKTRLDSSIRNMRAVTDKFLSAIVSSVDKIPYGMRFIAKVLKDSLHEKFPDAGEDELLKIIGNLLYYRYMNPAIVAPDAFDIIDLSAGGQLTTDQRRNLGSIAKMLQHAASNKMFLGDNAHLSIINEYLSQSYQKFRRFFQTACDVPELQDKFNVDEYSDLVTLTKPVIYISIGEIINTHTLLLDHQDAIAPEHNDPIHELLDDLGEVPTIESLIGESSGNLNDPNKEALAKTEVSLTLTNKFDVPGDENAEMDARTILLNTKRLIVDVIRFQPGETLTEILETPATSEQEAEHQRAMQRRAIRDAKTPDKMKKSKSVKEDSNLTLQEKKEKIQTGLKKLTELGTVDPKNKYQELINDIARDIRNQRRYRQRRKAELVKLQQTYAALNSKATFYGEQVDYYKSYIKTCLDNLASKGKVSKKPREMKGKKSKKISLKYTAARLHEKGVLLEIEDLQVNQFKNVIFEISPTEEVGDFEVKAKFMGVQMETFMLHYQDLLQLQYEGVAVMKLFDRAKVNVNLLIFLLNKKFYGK
UniProt Q9Y394: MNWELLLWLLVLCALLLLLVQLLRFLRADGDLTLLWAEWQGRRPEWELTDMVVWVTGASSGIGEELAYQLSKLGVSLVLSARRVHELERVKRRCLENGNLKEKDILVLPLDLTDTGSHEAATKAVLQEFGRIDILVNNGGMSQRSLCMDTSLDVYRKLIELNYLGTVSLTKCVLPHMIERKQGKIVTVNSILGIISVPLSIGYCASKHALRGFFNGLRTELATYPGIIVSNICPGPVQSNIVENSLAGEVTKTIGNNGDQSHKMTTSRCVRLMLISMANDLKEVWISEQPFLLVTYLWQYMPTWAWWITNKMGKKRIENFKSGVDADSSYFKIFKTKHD
UniProt Q9UHQ4: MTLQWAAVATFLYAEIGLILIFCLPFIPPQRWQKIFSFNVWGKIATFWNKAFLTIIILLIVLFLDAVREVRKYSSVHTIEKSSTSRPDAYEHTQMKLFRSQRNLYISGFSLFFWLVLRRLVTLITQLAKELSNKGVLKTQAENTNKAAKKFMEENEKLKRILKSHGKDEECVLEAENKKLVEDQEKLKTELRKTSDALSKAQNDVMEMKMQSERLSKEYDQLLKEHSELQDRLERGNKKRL
UniProt Q9UJG1: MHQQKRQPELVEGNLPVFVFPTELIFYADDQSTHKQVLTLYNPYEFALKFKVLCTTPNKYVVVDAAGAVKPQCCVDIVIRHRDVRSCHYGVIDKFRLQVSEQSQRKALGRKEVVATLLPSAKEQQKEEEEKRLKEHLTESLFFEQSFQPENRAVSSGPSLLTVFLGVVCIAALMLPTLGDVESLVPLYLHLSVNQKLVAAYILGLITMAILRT
UniProt P02794, whole entry: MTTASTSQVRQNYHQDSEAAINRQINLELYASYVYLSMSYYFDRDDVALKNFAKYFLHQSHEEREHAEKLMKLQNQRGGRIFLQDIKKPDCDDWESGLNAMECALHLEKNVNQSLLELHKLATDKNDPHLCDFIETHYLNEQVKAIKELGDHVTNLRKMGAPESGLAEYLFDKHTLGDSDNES
UniProt Q16594, whole entry: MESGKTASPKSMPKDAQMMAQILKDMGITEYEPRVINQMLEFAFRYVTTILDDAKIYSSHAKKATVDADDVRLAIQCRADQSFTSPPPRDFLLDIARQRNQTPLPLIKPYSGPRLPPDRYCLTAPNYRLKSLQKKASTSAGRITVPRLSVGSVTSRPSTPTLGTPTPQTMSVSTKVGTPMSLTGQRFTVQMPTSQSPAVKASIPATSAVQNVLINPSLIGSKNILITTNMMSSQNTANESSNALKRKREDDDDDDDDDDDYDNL
UniProt Q9UBB6: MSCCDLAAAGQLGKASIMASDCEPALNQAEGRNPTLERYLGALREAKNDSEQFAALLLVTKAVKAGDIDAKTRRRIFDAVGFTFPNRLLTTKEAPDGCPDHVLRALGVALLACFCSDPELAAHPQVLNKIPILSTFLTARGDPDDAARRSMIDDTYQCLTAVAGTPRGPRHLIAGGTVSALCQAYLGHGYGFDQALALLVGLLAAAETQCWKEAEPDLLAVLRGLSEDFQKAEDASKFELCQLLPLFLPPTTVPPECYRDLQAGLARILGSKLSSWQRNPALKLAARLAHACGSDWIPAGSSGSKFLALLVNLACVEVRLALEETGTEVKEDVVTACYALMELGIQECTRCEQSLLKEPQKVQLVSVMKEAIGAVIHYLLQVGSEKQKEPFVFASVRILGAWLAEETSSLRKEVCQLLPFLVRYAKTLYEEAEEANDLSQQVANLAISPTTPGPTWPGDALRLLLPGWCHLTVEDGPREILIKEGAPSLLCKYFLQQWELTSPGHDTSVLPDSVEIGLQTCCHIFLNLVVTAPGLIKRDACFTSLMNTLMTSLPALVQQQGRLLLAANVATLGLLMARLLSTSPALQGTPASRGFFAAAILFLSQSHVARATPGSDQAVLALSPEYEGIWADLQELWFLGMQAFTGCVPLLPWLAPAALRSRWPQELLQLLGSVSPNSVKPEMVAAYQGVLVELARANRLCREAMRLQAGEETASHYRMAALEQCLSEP
UniProt Q92547, whole entry: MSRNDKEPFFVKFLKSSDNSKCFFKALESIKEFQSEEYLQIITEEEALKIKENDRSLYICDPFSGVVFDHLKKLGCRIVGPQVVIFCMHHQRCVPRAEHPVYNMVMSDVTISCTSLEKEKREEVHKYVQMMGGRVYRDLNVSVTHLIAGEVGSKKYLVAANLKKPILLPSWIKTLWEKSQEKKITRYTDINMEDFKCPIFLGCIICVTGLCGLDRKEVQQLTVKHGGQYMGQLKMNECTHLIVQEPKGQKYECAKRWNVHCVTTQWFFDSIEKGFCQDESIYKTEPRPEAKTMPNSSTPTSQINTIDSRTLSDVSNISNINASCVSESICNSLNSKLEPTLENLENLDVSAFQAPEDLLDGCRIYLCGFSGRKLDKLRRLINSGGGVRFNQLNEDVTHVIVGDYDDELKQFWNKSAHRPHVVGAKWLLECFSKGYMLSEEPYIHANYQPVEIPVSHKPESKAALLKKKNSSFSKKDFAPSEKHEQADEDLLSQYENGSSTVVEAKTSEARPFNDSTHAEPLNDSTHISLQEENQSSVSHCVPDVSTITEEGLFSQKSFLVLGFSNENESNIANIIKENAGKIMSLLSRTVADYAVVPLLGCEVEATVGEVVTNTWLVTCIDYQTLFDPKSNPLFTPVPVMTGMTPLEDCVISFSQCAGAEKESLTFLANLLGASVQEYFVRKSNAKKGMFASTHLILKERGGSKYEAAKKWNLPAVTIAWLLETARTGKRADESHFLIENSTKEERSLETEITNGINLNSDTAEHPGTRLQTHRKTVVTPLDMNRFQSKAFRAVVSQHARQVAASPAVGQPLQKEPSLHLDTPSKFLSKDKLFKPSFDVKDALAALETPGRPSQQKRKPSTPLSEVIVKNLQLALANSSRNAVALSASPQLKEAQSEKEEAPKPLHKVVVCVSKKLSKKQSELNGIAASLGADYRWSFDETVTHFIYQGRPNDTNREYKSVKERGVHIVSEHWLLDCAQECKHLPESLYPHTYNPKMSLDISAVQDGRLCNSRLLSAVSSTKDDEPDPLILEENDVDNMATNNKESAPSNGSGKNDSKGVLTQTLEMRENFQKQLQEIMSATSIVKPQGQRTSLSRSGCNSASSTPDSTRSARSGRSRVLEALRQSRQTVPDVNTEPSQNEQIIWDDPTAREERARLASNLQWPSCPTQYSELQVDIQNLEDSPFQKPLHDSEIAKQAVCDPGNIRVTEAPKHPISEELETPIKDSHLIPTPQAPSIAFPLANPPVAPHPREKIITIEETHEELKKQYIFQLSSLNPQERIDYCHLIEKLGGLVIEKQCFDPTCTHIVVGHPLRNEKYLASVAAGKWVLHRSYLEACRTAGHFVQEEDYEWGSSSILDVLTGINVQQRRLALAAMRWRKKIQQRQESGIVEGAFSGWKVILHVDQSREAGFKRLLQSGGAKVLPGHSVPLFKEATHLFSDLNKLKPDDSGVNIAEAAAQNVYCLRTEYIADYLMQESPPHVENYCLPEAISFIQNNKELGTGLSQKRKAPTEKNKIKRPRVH
UniProt O75317, whole entry: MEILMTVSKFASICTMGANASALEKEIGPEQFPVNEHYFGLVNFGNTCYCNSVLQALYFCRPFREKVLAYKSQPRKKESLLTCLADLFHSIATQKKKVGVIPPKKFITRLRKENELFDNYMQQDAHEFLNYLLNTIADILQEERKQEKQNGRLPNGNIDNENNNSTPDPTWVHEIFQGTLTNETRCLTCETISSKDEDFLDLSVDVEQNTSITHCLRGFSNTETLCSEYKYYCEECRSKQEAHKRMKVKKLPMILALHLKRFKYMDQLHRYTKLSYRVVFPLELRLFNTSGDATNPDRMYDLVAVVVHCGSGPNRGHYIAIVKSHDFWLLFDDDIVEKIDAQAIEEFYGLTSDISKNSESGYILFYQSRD

[1] = system: DAOY cell lysate, treatment time: 20 min, 4 °C
[2] = system: intact DAOY cells, treatment time: 90 min, 37 °C

| Target | melting temperature shift [1] | melting temperature shift [2] |
| --- | --- | --- |
| SMARCAD1 (UniProt Q9H4L7) | -0.393 °C | -1.9 °C |
| ACTR3 (UniProt P61158) | -0.898 °C | -0.0201 °C |
| CTTN (UniProt Q14247) | -3.66 °C | – |
| HTATIP2 (UniProt Q9BUP3) | 1.15 °C | 0.0263 °C |
| NCOA7 (UniProt Q8NI08) | -0.502 °C | -2.11 °C |
| RNF187 (UniProt Q5TA31) | -0.000683 °C | – |
| UniProt Q92674 | -2.06 °C | 0.0809 °C |
| MALSU1 (UniProt Q96EH3) | 1.79 °C | -0.125 °C |
| PPM1F (UniProt P49593) | -0.975 °C | -0.0855 °C |
| EHD2 (UniProt Q9NZN4) | -1.25 °C | -2.46 °C |
| UniProt Q9HBI0 | -1.02 °C | -0.823 °C |
| SYNJ2BP (UniProt P57105) | 0.166 °C | -0.78 °C |
| UniProt Q9BTT4 | -1.82 °C | – |
| CEP41 (UniProt Q9BYV8) | -1.23 °C | -0.624 °C |
| UniProt P52926 | 5.67 °C | – |
| IQGAP1 (UniProt P46940) | -0.411 °C | -1.1 °C |
| SSFA2 (UniProt P28290) | -10.1 °C | – |
| SH3PXD2B (UniProt A1X283) | -0.325 °C | -0.177 °C |
| SRSF10 (UniProt O75494) | 0.157 °C | -0.273 °C |
| PPP2CA (UniProt P67775) | -0.879 °C | 1.28 °C |
| UniProt A5A3E0 | – | 0.635 °C |
| CDIPT (UniProt O14735) | 3.14 °C | 0.0308 °C |
| DHRS7 (UniProt Q9Y394) | – | 2.73 °C |

| Target | melting temperature shift [1] | melting temperature shift [2] |
| --- | --- | --- |
| USP10 (UniProt Q14694) | 0.0155 °C | -0.0357 °C |
| SEL1L (UniProt Q9UBV2) | 1.42 °C | -0.652 °C |
| UniProt Q9Y5W8 | – | -0.0345 °C |
| AMFR (UniProt Q9UKV5) | 2.6 °C | – |
| L1CAM (UniProt P32004) | 3.34 °C | – |
| DSN1 (UniProt Q9H410) | -0.533 °C | 0.0488 °C |
| TYMS (UniProt P04818) | -0.564 °C | -0.458 °C |
| MRPS30 (UniProt Q9NP92) | 0.0673 °C | -1.43 °C |
| MRPL51 (UniProt Q4U2R6) | 0.418 °C | -1.86 °C |
| UniProt P0DMU9 | – | 1.32 °C |
| IPO4 (UniProt Q8TEX9) | -0.658 °C | -0.163 °C |
| HNRNPUL2 (UniProt Q1KMD3) | 0.0779 °C | -1.08 °C |
| PGP (UniProt A6NDG6) | -2.23 °C | -0.738 °C |
| CCDC124 (UniProt Q96CT7) | -2.35 °C | – |
| UniProt Q9C010 | – | 0.0787 °C |
| UniProt Q9NZ42 | 6.01 °C | – |
| MYBBP1A (UniProt Q9BQG0) | -0.307 °C | -0.881 °C |
| TBC1D24 (UniProt Q9ULP9) | 1.5 °C | -2.19 °C |
| NDUFA11 (UniProt Q86Y39) | 0.329 °C | -0.432 °C |
| UniProt O15321 | 2.39 °C | -0.442 °C |
| SRGAP1 (UniProt Q7Z6B7) | 4.3 °C | -0.763 °C |
| UniProt Q6NVV1 | – | -0.382 °C |
| NAV2 (UniProt Q8IVL1) | – | 2.04 °C |

| Target | melting temperature shift [1] | melting temperature shift [2] |
| --- | --- | --- |
| UBE3A (UniProt Q05086) | -0.504 °C | -0.531 °C |
| SOD2 (UniProt P04179) | 4.03 °C | – |
| PSMD4 (UniProt P55036) | -1.13 °C | -1.28 °C |
| UniProt Q9BQ04 | – | 0.604 °C |
| BCAP29 (UniProt Q9UHQ4) | 2.67 °C | 0.195 °C |
| ACAA1 (UniProt P09110) | 0.384 °C | -0.316 °C |
| MOSPD1 (UniProt Q9UJG1) | – | 2.04 °C |
| GPX8 (UniProt Q8TED1) | 1.43 °C | -0.677 °C |
| TERF2IP (UniProt Q9NYB0) | -0.304 °C | -0.599 °C |
| UniProt Q14207 | 3.02 °C | – |
| UniProt P48595 | – | 2.58 °C |
| FTH1 (UniProt P02794) | 0.686 °C | – |
| SLC2A3 (UniProt P11169) | 2.32 °C | – |
| NDUFC2 (UniProt O95298) | 1.37 °C | 1.37 °C |
| MRPL48 (UniProt Q96GC5) | 0.376 °C | -1.37 °C |
| INPP4A (UniProt Q96PE3) | -0.253 °C | – |
| TMEM56 (UniProt Q96MV1) | -0.0705 °C | -2.06 °C |
| UniProt Q16594 | -0.921 °C | -1.13 °C |
| CHERP (UniProt Q8IWX8) | -0.135 °C | -0.787 °C |
| NCDN (UniProt Q9UBB6) | -1.27 °C | -0.436 °C |
| SCYL1 (UniProt Q96KG9) | -0.567 °C | -0.585 °C |
| UniProt O75509 | -0.547 °C | – |
| UniProt Q8WTZ3 | 0.11 °C | – |

Look-ups from the results shown:
FTH1 (UniProt P02794) | melting temperature shift [1]: 0.686 °C
UniProt Q16594 | melting temperature shift [1]: -0.921 °C
MRPS30 (UniProt Q9NP92) | melting temperature shift [2]: -1.43 °C

Following part.

| Target | melting temperature shift [1] | melting temperature shift [2] |
| --- | --- | --- |
| UniProt O76027 | – | 1.86 °C |
| PFKL (UniProt P17858) | -0.606 °C | -0.874 °C |
| UniProt Q8NFD4 | -2.03 °C | 1.36 °C |
| UniProt M0R2J8 | -0.647 °C | 0.702 °C |
| RPL11 (UniProt P62913) | 0.113 °C | -1.09 °C |
| TOPBP1 (UniProt Q92547) | 0.25 °C | – |
| UniProt L0R8F8 | 0.495 °C | 0.195 °C |
| UniProt Q9Y6M4 | -0.608 °C | 2.43 °C |
| UniProt Q99879 | – | -0.488 °C |
| RPRD1A (UniProt Q96P16) | -0.32 °C | -2.03 °C |
| UniProt O75317 | – | 0.652 °C |
| EML3 (UniProt Q32P44) | -3.1 °C | 1.22 °C |
| IFI35 (UniProt P80217) | -1.14 °C | 0.184 °C |
| WBSCR22 (UniProt O43709) | 0.221 °C | -0.483 °C |
| FTSJ1 (UniProt Q9UET6) | -0.337 °C | -0.157 °C |
| RPIA (UniProt P49247) | 0.922 °C | – |
| UniProt Q9HD40 | -1.65 °C | – |
| UniProt Q96G21 | -0.345 °C | – |
| HSP90AA1 (UniProt P07900) | -0.71 °C | -0.253 °C |
| OXSM (UniProt Q9NWU1) | 0.306 °C | -0.255 °C |
| PAIP1 (UniProt Q9H074) | -1.11 °C | -0.675 °C |
| DCTD (UniProt P32321) | -0.253 °C | -5.35 °C |
| CSTF3 (UniProt Q12996) | -0.334 °C | -0.358 °C |

Copied from the entries so far (3 entries):

| Target | melting temperature shift [1] | melting temperature shift [2] |
| --- | --- | --- |
| UniProt O15321 | 2.39 °C | -0.442 °C |
| SRGAP1 (UniProt Q7Z6B7) | 4.3 °C | -0.763 °C |
| UniProt Q6NVV1 | – | -0.382 °C |
